From PMC12781162, “Human Protein Z as the Second Known Heme‐Binding Protein from the Endogenous Blood Coagulation Inhibitor System” (Chembiochem, 2025)

Key:
[1] = UV/vis spectroscopic interaction studies of PZ-derived peptides with heme; type: binding; details: heme–peptide complex, difference spectra
Procedure: Heme binding to PZ‐derived peptides 1 –5 was analyzed by UV/vis spectroscopy, as previously reported for other protein‐derived peptides as well.^[ [18] ^, [19] ^, [35] ^, [43] ^, [44] ^] In brief, each peptide (10 µM) was incubated for 30 min with heme in 100 mM HEPES buffer (pH 7.0) for 30 min. Absorbance spectra were recorded in the range of 300–600 nm on a Infinite 200 Pro spectrophotometer. Difference spectra were generated by subtraction of the single absorbance data of heme and the peptide, respectively, from the data of the heme–peptide complex. Difference spectra were plotted with GraphPad Prism, version 10.5.0. K D values were calculated using the equation from Pîrnău and Bogdan (2008).^[ [45] ^]

[2] = system: T1, PZ; test: UV/vis-spectroscopic titration of heme to PZ; type: binding, human
T1 construct: purchased CellSystems GmbH HCPZ-0220

| Substance | Soret shift [1] | number of heme molecules bound specifically by PZ ([2]; UV/vis titration, saturation at ratio 1:1) | Soret band shift ([2]; heme (90 µM) titrated to PZ (10 µM), ratios 1:1 to 1:4) |
| --- | --- | --- | --- |
| C(Me)SLLHRNITVKTYFNRT (N-terminal S-methylated cysteine) [Peptide 3, PZ-derived peptide around H183/Y191 with methylated cysteine, positions 179 - 195] | ~ 417 nm | – | – |
| IKITHVHVHMRYD [Peptide 4, PZ-derived peptide around H206/H208/H210, positions 202 - 214] | ~ 418 nm | – | – |
| FWRRYKGGS [Peptide 1] | ~ 420 nm | – | – |
| VTREHRGSW [Peptide 5, PZ-derived peptide around H321, positions 317 - 325] | ~ 421 nm | – | – |
| Hemin [heme] | – | one | ≈ 404 nm |
